PubChem BioAssay AID652243 – Drosophila RNAi Screening Center, 2013
In all, the deposit lists about 24,000 reagents; this is a random part of those with a known target gene and a result. Over the whole deposit, 246 (1%) are marked active. 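Plates not normalised; calls are printed but the firefly/Renilla ratio behind them is not deposited; fold cut for lowering reported inconsistently.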 Raw values vary from plate to plate and are shown uncorrected. The record does not give: the amount of reagent.

Purpose: 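Fly regulators of androgen-dependent reporter output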 (primary screen)
System: Drosophila S2R+ cells
Reagent: long dsRNA against Drosophila genes
Duration: 72 h (48 h, then 24 h hormone)
Challenge: synthetic androgen R1881 at 10 nM for 24 h
Measured: 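Firefly light from an androgen-responsive reporter and Renilla control light per well, raw and unnormalised, for each of two replicates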
Reading the numbers: firefly reporter light: higher = more light from androgen-responsive reporter; Renilla control light: higher = more constitutive control signal (cell number, transfection)
Call rule: 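Hit when the log firefly-to-Renilla ratio dropped or increased by a fixed fold versus the mean of GFP or LacZ controls across duplicate plates; lowering cut given as 1.5 and as 3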
Meaning of the calls: active = hit: reporter lowered or raised; inactive = no hit

With CG14687 [DRSC14910], what was measured?
firefly reporter light, replicate 1: 4.37e5; firefly reporter light, replicate 2: 4.61e5; Renilla control light, replicate 1: 2.20e6; Renilla control light, replicate 2: 1.66e6; Outcome: inactive

For CG14687 [DRSC29639], what was measured?
firefly reporter light, replicate 1: 3.32e5; firefly reporter light, replicate 2: 3.29e5; Renilla control light, replicate 1: 5.86e5; Renilla control light, replicate 2: 5.86e5; Outcome: inactive

For CG14007 [DRSC02339], how do the results read?
firefly reporter light, replicate 1: 55668; firefly reporter light, replicate 2: 71155; Renilla control light, replicate 1: 8.63e5; Renilla control light, replicate 2: 8.44e5; Outcome: inactive

What did the screen give for CG6983 [DRSC10757]?
firefly reporter light, replicate 1: 1.16e6; firefly reporter light, replicate 2: 1.06e6; Renilla control light, replicate 1: 2.35e6; Renilla control light, replicate 2: 2.44e6; Outcome: inactive

How did the screen score dbo [DRSC11339]?
firefly reporter light, replicate 1: 6.15e5; firefly reporter light, replicate 2: 3.87e5; Renilla control light, replicate 1: 2.78e6; Renilla control light, replicate 2: 1.61e6; Outcome: inactive

For CG9222 [DRSC03158], what was measured?
firefly reporter light, replicate 1: 1.59e5; firefly reporter light, replicate 2: 1.19e5; Renilla control light, replicate 1: 1.47e6; Renilla control light, replicate 2: 1.05e6; Outcome: inactive

For Acat2 [DRSC08630], what does the deposit list?
firefly reporter light, replicate 1: 1.32e5; firefly reporter light, replicate 2: 1.39e5; Renilla control light, replicate 1: 2.67e6; Renilla control light, replicate 2: 2.48e6; Outcome: inactive

How did the screen score Bace [DRSC02197]?
firefly reporter light, replicate 1: 3.65e5; firefly reporter light, replicate 2: 3.05e5; Renilla control light, replicate 1: 2.14e6; Renilla control light, replicate 2: 2.90e6; Outcome: inactive

Which result is listed for Bace [DRSC28723]?
firefly reporter light, replicate 1: 8.68e5; firefly reporter light, replicate 2: 7.80e5; Renilla control light, replicate 1: 1.44e6; Renilla control light, replicate 2: 1.59e6; Outcome: inactive

In a second layout: results already given.
Gene | amplicon | firefly reporter light, replicate 1 | firefly reporter light, replicate 2 | Renilla control light, replicate 1 | Renilla control light, replicate 2 | Outcome
CG14687 | DRSC29639 | 3.32e5 | 3.29e5 | 5.86e5 | 5.86e5 | inactive
CG14007 | DRSC02339 | 55668 | 71155 | 8.63e5 | 8.44e5 | inactive
CG6983 | DRSC10757 | 1.16e6 | 1.06e6 | 2.35e6 | 2.44e6 | inactive

Further results:
For CG33477 [DRSC22934], how do the results read?
firefly reporter light, replicate 1: 4.01e5; firefly reporter light, replicate 2: 7.96e5; Renilla control light, replicate 1: 1.14e6; Renilla control light, replicate 2: 1.80e6; Outcome: inactive

How did the screen score if [DRSC20341]?
firefly reporter light, replicate 1: 5.17e5; firefly reporter light, replicate 2: 3.47e5; Renilla control light, replicate 1: 2.87e6; Renilla control light, replicate 2: 1.67e6; Outcome: inactive

How did the screen score CG3253 [DRSC04350]?
firefly reporter light, replicate 1: 4.35e5; firefly reporter light, replicate 2: 4.84e5; Renilla control light, replicate 1: 1.87e6; Renilla control light, replicate 2: 2.13e6; Outcome: active

With CG3253 [DRSC29358], what does the deposit list?
firefly reporter light, replicate 1: 5.41e5; firefly reporter light, replicate 2: 5.04e5; Renilla control light, replicate 1: 1.11e6; Renilla control light, replicate 2: 1.11e6; Outcome: inactive

What is on record for cN-IIIB [DRSC04359]?
firefly reporter light, replicate 1: 8.52e5; firefly reporter light, replicate 2: 8.91e5; Renilla control light, replicate 1: 1.24e6; Renilla control light, replicate 2: 1.11e6; Outcome: inactive

How did the screen score v [DRSC20383]?
firefly reporter light, replicate 1: 1.52e5; firefly reporter light, replicate 2: 98578; Renilla control light, replicate 1: 6.07e5; Renilla control light, replicate 2: 5.20e5; Outcome: inactive

Which result is listed for v [DRSC39107]?
firefly reporter light, replicate 1: 3.45e5; firefly reporter light, replicate 2: 6.11e5; Renilla control light, replicate 1: 1.28e6; Renilla control light, replicate 2: 3.11e6; Outcome: inactive

Which result is listed for l(2)05714 [DRSC03118]?
firefly reporter light, replicate 1: 8.18e5; firefly reporter light, replicate 2: 9.99e5; Renilla control light, replicate 1: 1.62e6; Renilla control light, replicate 2: 1.78e6; Outcome: inactive

How did the screen score l(2)05714 [DRSC29829]?
firefly reporter light, replicate 1: 5.47e5; firefly reporter light, replicate 2: 5.23e5; Renilla control light, replicate 1: 1.16e6; Renilla control light, replicate 2: 1.59e6; Outcome: inactive

What is on record for Hex-t1 [DRSC16701]?
firefly reporter light, replicate 1: 1.22e5; firefly reporter light, replicate 2: 1.52e5; Renilla control light, replicate 1: 2.45e6; Renilla control light, replicate 2: 2.34e6; Outcome: inactive

How did the screen score Hex-t1 [DRSC26127]?
firefly reporter light, replicate 1: 2.85e5; firefly reporter light, replicate 2: 2.74e5; Renilla control light, replicate 1: 7.55e5; Renilla control light, replicate 2: 7.86e5; Outcome: inactive

For CG10822 [DRSC06005], how do the results read?
firefly reporter light, replicate 1: 50223; firefly reporter light, replicate 2: 59462; Renilla control light, replicate 1: 7.59e5; Renilla control light, replicate 2: 7.63e5; Outcome: inactive
